In the supplement of paper PMC4635364:
Structures can show the parent of a compound that is named as a salt. Some of the results follow. Single values are uncertain here, since repeats match poorly.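 Cells: ReNCell VM human fetal ventral-midbrain neural progenitors, differentiated mitogen-free. Blinded raters compared doublecortin-stained (early neurons) or tyrosine hydroxylase-stained (dopaminergic neurons) images with untreated wells, where 0 means no change. After repeats and both raters were averaged, compounds scoring 2 or above became hits for retesting.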

test system: ReNCell VM; experiment: dopaminergic neuron differentiation score (TH+ cell fraction vs untreated, manual image score) (score (0 to 3)); higher = more TH+ dopaminergic neuron differentiation; conditions: library: Prestwick; 2 uM; 4 weeks; BDNF 10 ng/ml + GDNF 10 ng/ml

Dopaminergic neuron differentiation score, inactive:
CCCC(=O)Nc1ncnc2c1ncn2[C@@H]1O[C@@H]2COP(=O)(O)O[C@H]2[C@H]1OC(=O)CCC [Bucladesine sodium salt] 0
C[C@H](N)[C@H](O)c1cccc(O)c1 [Metaraminol bitartrate] 0
CN(C)CCC(c1ccc(Br)cc1)c1ccccn1 (centres undefined) [Brompheniramine maleate] 0
Clc1ccccc1CN1CCc2sccc2C1 [Ticlopidine hydrochloride] 0
COc1nc(C)nc(Cl)c1NC1=NCCN1 [Moxonidine] 0

same assay, conditions: library: Spectrum; 2 uM; 4 weeks; BDNF 10 ng/ml + GDNF 10 ng/ml

Dopaminergic neuron differentiation score, inactive:
NC(=O)N/N=C/c1ccc([N+](=O)[O-])o1 0
c1ccc2c(CC3=NCCN3)cccc2c1 0
CC(C)(O)CC[C@@H](O)[C@](C)(O)[C@H]1CC[C@@]2(O)C3=CC(=O)[C@@H]4C[C@@H](O)[C@@H](O)C[C@]4(C)[C@H]3CC[C@]12C 0
Cc1cnc(NC(=O)C2=C(O)c3ccccc3S(=O)(=O)N2C)s1 0
Cc1cccc(C)c1NC(=O)C(C)N (centres undefined) 0
CCOc1ccc2nc3cc(N)ccc3c(N)c2c1 0
O=C(O)CN(CC(=O)O)Cc1cc2c(cc1O)Oc1cc(O)c(CN(CC(=O)O)CC(=O)O)cc1C21OC(=O)c2ccccc21 0
CC(=O)[C@@]1(O)CC[C@H]2[C@@H]3CCC4=CC(=O)CC[C@]4(C)[C@H]3CC[C@@]21C 0
NC(=O)c1ccc[n+]([C@@H]2O[C@H](COP(=O)([O-])OP(=O)(O)OC[C@H]3O[C@@H](n4cnc5c(N)ncnc54)[C@H](O)[C@@H]3O)[C@@H](O)[C@H]2O)c1 0

Sorted by heavy-atom count (ascending): part of the list above.
Dopaminergic neuron differentiation score, inactive:
NC(=O)N/N=C/c1ccc([N+](=O)[O-])o1 0
Cc1cnc(NC(=O)C2=C(O)c3ccccc3S(=O)(=O)N2C)s1 0
CC(C)(O)CC[C@@H](O)[C@](C)(O)[C@H]1CC[C@@]2(O)C3=CC(=O)[C@@H]4C[C@@H](O)[C@@H](O)C[C@]4(C)[C@H]3CC[C@]12C 0
